The values that follow come from article doi:10.1101/2020.05.24.113654 (bioRxiv, 2020).

Results are given in words; binding and its absence hold for the method and conditions named. Some results given as binding are weak or reduced against the parent protein; the word gives no strength.

The assay concerns the target Cre^Cat (interdomain linker and C-terminal catalytic domain of Cre recombinase, residues 127-343) (UniProt P06956). Briefly: intermolecular PRE-NMR.

B1: MTSL tagged-Cre^Cat C155A/C240A/D343C (domain or fragment, UniProt P06956 127-343, looked up)
chain: AGERAKQALAFERTDFDQVRSLMENSDRAQDIRNLAFLGIAYNTLLRIAEIARIRVKDISRTDGGRMLIHIGRTKTLVSTAGVEKALSLGVTKLVERWISVSGVADDPNNYLFARVRKNGVAAPSATSQLSTRALEGIFEATHRLIYGAKDDSGQRYLAWSGHSARVGAARDMARAGVSIPEIMQAGGWTNVNIVMNYIRNLDSETGAMVRLLEDGC
modifications: MTSL paramagnetic spin probe on C-terminal residue C343
Take B1: the binding result is “binds weakly”.
